This passage reports binding results from doi:10.1101/846592.

Chains of the proteins cited; added tags and fusions are not shown. Lines headed by an entry give the natural chain unless they say otherwise; changes in a name come on top.
UniProt Q9LXD7: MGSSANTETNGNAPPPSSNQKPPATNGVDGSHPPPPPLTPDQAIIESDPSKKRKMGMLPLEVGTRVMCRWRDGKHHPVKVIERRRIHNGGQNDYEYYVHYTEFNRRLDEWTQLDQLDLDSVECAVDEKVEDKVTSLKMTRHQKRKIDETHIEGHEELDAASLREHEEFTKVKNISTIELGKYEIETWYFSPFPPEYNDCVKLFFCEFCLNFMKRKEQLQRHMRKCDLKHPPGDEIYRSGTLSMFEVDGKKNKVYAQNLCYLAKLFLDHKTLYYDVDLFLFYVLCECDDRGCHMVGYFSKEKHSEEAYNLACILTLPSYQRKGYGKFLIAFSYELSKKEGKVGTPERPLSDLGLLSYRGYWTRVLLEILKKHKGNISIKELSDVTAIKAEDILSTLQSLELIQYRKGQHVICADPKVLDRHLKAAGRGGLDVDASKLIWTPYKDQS
UniProt Q9FX82: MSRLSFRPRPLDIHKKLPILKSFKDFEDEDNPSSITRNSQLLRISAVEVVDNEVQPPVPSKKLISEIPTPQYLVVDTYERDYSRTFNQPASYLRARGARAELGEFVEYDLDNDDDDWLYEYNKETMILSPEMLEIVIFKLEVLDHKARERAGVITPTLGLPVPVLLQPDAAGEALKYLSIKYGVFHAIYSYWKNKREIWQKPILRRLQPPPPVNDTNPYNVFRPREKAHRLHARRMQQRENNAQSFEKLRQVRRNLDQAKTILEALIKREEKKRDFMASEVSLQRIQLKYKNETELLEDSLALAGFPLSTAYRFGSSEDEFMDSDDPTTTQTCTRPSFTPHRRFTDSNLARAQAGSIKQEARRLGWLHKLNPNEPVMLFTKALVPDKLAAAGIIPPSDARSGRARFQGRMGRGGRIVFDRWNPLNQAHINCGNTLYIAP
UniProt F4IDH5: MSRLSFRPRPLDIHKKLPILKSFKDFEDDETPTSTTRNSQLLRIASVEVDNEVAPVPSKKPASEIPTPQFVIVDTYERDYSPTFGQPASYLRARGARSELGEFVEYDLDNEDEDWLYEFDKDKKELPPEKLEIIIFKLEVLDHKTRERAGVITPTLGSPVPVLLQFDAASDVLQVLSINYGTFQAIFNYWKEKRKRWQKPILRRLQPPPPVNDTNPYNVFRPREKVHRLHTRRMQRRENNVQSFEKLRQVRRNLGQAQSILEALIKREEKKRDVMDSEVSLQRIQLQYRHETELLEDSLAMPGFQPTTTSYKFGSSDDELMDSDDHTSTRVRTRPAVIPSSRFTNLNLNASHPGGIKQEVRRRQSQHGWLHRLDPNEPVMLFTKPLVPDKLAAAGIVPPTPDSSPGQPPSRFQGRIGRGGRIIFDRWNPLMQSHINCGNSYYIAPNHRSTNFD

These are yes or no findings as the source states them, for the method shown. Binding can be weak; no strength is given. For some of these results: Where a sequence is shown, tags or fusion partners need not be part of it. For some of these results: In cells and extracts the contact can be indirect.

One assay deals with T1, HAM1-6xHis (A. thaliana) (UniProt Q9FLF7).
T1 sequence: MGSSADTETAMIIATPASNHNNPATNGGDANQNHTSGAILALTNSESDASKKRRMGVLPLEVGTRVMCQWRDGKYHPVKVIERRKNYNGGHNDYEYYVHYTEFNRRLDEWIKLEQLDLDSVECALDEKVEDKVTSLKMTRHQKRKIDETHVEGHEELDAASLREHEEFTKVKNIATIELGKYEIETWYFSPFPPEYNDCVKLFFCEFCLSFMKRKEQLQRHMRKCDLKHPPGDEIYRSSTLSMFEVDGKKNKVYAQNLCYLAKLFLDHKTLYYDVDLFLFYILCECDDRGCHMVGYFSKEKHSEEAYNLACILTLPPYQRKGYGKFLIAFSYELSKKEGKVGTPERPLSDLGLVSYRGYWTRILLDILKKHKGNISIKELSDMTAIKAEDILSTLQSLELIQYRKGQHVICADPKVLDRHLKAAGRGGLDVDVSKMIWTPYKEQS
As to the kind of experiment: pull-down.

The target in assay [1] is T2, HAM1 fused with His-tag (A. thaliana) (UniProt Q9FLF7).
T2 sequence: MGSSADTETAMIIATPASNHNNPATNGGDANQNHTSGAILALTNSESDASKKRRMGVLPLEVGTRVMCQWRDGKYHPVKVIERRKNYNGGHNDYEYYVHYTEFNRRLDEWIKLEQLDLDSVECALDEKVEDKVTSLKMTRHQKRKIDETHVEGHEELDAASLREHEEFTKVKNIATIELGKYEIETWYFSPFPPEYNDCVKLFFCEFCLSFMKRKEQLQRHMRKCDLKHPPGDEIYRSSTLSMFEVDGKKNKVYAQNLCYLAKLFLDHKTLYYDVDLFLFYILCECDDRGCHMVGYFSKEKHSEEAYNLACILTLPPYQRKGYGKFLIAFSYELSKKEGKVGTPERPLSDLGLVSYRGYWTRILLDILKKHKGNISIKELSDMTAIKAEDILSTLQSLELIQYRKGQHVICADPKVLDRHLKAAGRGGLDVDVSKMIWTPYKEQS
As to the kind of experiment: pull-down.

Assay [2] addresses HAM2 fused with His-tag (A. thaliana) (UniProt Q9LXD7). As to the kind of experiment: pull-down.
Assay [3] has as its target AtEPL1A fused with GST-tag (A. thaliana) (UniProt Q9FX82). As to the kind of experiment: far-Western, overlay or dot blot.
Assay [4] deals with AtEPL1B fused with GST-tag (A. thaliana) (UniProt F4IDH5). As to the kind of experiment: far-Western, overlay or dot blot.

As to AtEAF6 (A. thaliana), the binding result with HAM1-6xHis (A. thaliana) is “binds”. “AtEPL1A fused with GST-tag (from UniProt Q9FX82)”: the binding result in assay [1] and in assay [2] was “binds” in each case. For “AtEPL1B fused with GST-tag (from UniProt F4IDH5)”, the binding result in assay [1] and in assay [2] was “binds” in each case. As to FLAG-AtEPL1A (A. thaliana), the binding entry with HAM1-6xHis (A. thaliana) was “binds”. “HAM2 fused with His-tag (from UniProt Q9LXD7 1-445) (enzyme)”: the binding entry in assay [3] and in assay [4] was “binds” each time.

B1: HAM1 fused with His-tag (enzyme, UniProt Q9FLF7 1-445)
chain: MGSSADTETAMIIATPASNHNNPATNGGDANQNHTSGAILALTNSESDASKKRRMGVLPLEVGTRVMCQWRDGKYHPVKVIERRKNYNGGHNDYEYYVHYTEFNRRLDEWIKLEQLDLDSVECALDEKVEDKVTSLKMTRHQKRKIDETHVEGHEELDAASLREHEEFTKVKNIATIELGKYEIETWYFSPFPPEYNDCVKLFFCEFCLSFMKRKEQLQRHMRKCDLKHPPGDEIYRSSTLSMFEVDGKKNKVYAQNLCYLAKLFLDHKTLYYDVDLFLFYILCECDDRGCHMVGYFSKEKHSEEAYNLACILTLPPYQRKGYGKFLIAFSYELSKKEGKVGTPERPLSDLGLVSYRGYWTRILLDILKKHKGNISIKELSDMTAIKAEDILSTLQSLELIQYRKGQHVICADPKVLDRHLKAAGRGGLDVDVSKMIWTPYKEQS
For B1, the binding result in assay [3] and in assay [4] was “binds” throughout.
